According to the supplement of paper PMC10470496:
Structures can show the parent of a compound that is named as a salt. Some of the results follow. Repeats are few or missing, and single values can be far off.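 The three strains are clinical Candida auris isolates from the CDC resistance isolate bank, from clades III, IV and I, grown in RPMI-1640 at 35°C. Growth is background-corrected OD600 relative to vehicle-only wells on the same plate; a hit meant over 50% inhibition in at least two strains plus a plate-corrected B-score above 0.1.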

Columns and labels:
Assay in all cases: growth relative to vehicle control (OD600 ratio) (fraction); higher = less inhibition
Conditions in all cases: 24 h
C. auris AR-384 = test system: C. auris AR-384
C. auris AR-386 = test system: C. auris AR-386
C. auris AR-387 = test system: C. auris AR-387

Row | SMILES | growth (C. auris AR-384; 1 µM) | growth (C. auris AR-384; 10 µM) | growth (C. auris AR-386; 1 µM) | growth (C. auris AR-386; 10 µM) | growth (C. auris AR-387; 1 µM) | growth (C. auris AR-387; 10 µM)
1 | CN1CCC[C@@H]1Cc1c[nH]c2ccc(CCS(=O)(=O)c3ccccc3)cc12 [Eletriptan HBr] | 0.97 | 0.74 | 0.59 | 0.96 | 0.68 | 0.73
2 | Oc1ncnc2[nH]ncc12 [Allopurinol] | 0.81 | 0.97 | 0.81 | 0.64 | 0.8 | 1.12
3 | CC/C(=C(/CC)c1ccc(O)cc1)c1ccc(O)cc1 [Diethylstilbestrol] | 0.84 | 0.82 | 0.98 | 0.95 | 0.97 | 0.87
4 | CCNC1(C(N)=O)CCN(c2ncnc3c2nc(-c2ccccc2Cl)n3-c2ccc(Cl)cc2)CC1 | 0.9 | 0.69 | 0.92 | 0.91 | 0.88 | 0.86
5 | CN1CCN2c3ncccc3Cc3ccccc3C2C1 (stereo not drawn) [Mirtazapine] | 0.86 | 0.93 | 0.89 | 0.69 | 0.99 | 0.62
6 | N=C(N)NC(=N)NCCc1ccccc1 [Phenformin HCl] | 0.78 | 0.6 | 1.01 | 1 | 0.84 | 0.73
7 | CCCNCC(O)COc1ccccc1C(=O)CCc1ccccc1 (stereo not drawn) [Propafenone HCl] | 0.93 | 1 | 0.77 | 0.78 | 0.89 | 0.73
8 | CCCCC1=NC2(CCCC2)C(=O)N1Cc1ccc(-c2ccccc2-c2nnn[nH]2)cc1 [Irbesartan] | 0.84 | 0.98 | 0.89 | 0.73 | 0.89 | 0.82
9 | O=C(O)C[C@H](O)C[C@H](O)/C=C/c1c(C2CC2)nc2ccccc2c1-c1ccc(F)cc1 [Pitavastatin Calcium] | 0.87 | 0.7 | 0.9 | 0.65 | 0.85 | 0.84
10 | O=C(CCCN1CCC(O)(c2ccc(Cl)cc2)CC1)c1ccc(F)cc1 [Haloperidol] | 0.99 | 0.79 | 0.73 | 0.94 | 0.78 | 1.21
11 | CN1CCC(OC(c2ccccc2)c2ccccc2)CC1 [Diphenylpyraline HCl] | 1.2 | 1.3 | 1.01 | 1.11 | 0.99 | 0.97
12 | CC(C(=O)O)c1ccc(CC2CCCC2=O)cc1 (stereo not drawn) [Loxoprofen] | 0.96 | 0.7 | 0.83 | 0.66 | 0.96 | 0.83
13 | CC(C)(O)c1ccccc1CC[C@@H](SCC1(CC(=O)O)CC1)c1cccc(/C=C/c2ccc3ccc(Cl)cc3n2)c1 [Montelukast Sodium] | 1.26 | 0.87 | 0.69 | 0.75 | 0.83 | 0.82
14 | OCc1ccccc1 [Benzyl alcohol] | 1.19 | 0.97 | 0.89 | 0.86 | 1.09 | 1.2
15 | CC(=O)OCC(=O)[C@@]1(O)[C@H](C)C[C@H]2[C@@H]3CCC4=CC(=O)C=C[C@]4(C)[C@@]3(F)[C@@H](O)C[C@@]21C [Dexamethasone Acetate] | 1.02 | 1.13 | 1.29 | 1.21 | 1.26 | 0.99
16 | CNC(=O)c1ccc2cc([C@@]3(O)CCn4cncc43)ccc2c1 [TAK-700 (Orteronel)] | 1.56 | 1.2 | 1.02 | 0.92 | 0.8 | 0.64
17 | O=c1[nH]cnc2[nH]ncc12 [Allopurinol Sodium] | 0.79 | 0.51 | 0.68 | 0.73 | 0.7 | 0.76

Row | SMILES | growth (C. auris AR-384; 1 µM) | growth (C. auris AR-384; 10 µM) | growth (C. auris AR-386; 1 µM) | growth (C. auris AR-386; 10 µM) | growth (C. auris AR-387; 1 µM) | growth (C. auris AR-387; 10 µM)
18 | CC1=C(C(=O)OC(C)C)C(c2cccc([N+](=O)[O-])c2)C(C(=O)OC2CN(C(c3ccccc3)c3ccccc3)C2)=C(N)N1 (stereo not drawn) [Azelnidipine] | 0.78 | 0.85 | 0.7 | 0.79 | 0.89 | 1.09
19 | O=C(O)c1ccccc1 [Benzoic Acid] | 0.78 | 0.77 | 0.69 | 0.7 | 0.76 | 0.72
20 | Nc1ccc(S(=O)(=O)Nc2ccnn2-c2ccccc2)cc1 [Sulfaphenazole] | 0.92 | 0.84 | 0.83 | 0.88 | 0.63 | 0.74
21 | CCOC(=O)c1ccc(O)cc1 [Ethylparaben] | 0.82 | 0.71 | 0.66 | 1.02 | 0.72 | 0.93
22 | NC(=O)[C@@H]1CC[C@@H]2CN1C(=O)N2OS(=O)(=O)O [Avibactam sodium] | 1.05 | 0.74 | 1.02 | 0.68 | 0.6 | 0.65
23 | CCCCCCc1ccc(O)cc1O [Hexylresorcinol] | 1.2 | 1.28 | 1.1 | 1.22 | 1.05 | 1.09
24 | COC(=O)[C@H](Cc1ccccc1)NC(=O)[C@@H](N)CC(=O)O [Aspartame] | 0.76 | 0.93 | 0.7 | 0.65 | 0.92 | 0.63
25 | CCN1CCCC1CNC(=O)c1cc(S(=O)(=O)CC)c(N)cc1OC (stereo not drawn) [Amisulpride] | 0.81 | 0.88 | 1 | 0.67 | 0.88 | 0.98
26 | O=c1c(-n2ccnn2)c[nH]n1-c1cc(N2CCOCC2)ncn1 [Molidustat (BAY 85-3934)] | 0.77 | 0.74 | 0.88 | 0.55 | 0.6 | 0.66
27 | O=C(c1cc(Cc2n[nH]c(=O)c3ccccc23)ccc1F)N1CCN(C(=O)C2CC2)CC1 | 0.88 | 0.73 | 0.78 | 0.98 | 0.94 | 1.03
28 | CC(C)(C)NC(=O)[C@H]1CC[C@H]2[C@@H]3CC[C@H]4NC(=O)C=C[C@]4(C)[C@H]3CC[C@]12C [Finasteride] | 1.15 | 0.89 | 1.06 | 1.16 | 1.07 | 1.08
29 | O=C(CCCCCCC(=O)Nc1ccccc1)NO [Vorinostat (SAHA, MK0683)] | 0.69 | 0.84 | 0.83 | 1.02 | 0.87 | 0.91
30 | COc1ccnc(C[S+]([O-])c2nc3cc(OC(F)F)ccc3[nH]2)c1OC (stereo not drawn) [Pantoprazole] | 0.78 | 1.06 | 0.86 | 1.04 | 0.89 | 0.63
31 | OCC(CO)N[C@H]1C[C@](O)(CO)[C@@H](O)[C@H](O)[C@H]1O [Voglibose] | 0.92 | 1.05 | 1.03 | 1.1 | 1.16 | 1.13
32 | CC(C)(C)NCC(O)c1ccc(O)c(CO)c1 (stereo not drawn) [Salbutamol Sulfate] | 0.8 | 0.85 | 0.87 | 0.82 | 1.1 | 1.06
33 | O=C1C(CC[S+]([O-])c2ccccc2)C(=O)N(c2ccccc2)N1c1ccccc1 (racemic) [(+/-)-Sulfinpyrazone] | 0.92 | 0.81 | 0.96 | 0.92 | 1.01 | 1.09

Limited to growth (C. auris AR-387; 1 µM) (2 entries from above):

| Row | SMILES | growth (C. auris AR-387; 1 µM) |
| --- | --- | --- |
| 7 | CCCNCC(O)COc1ccccc1C(=O)CCc1ccccc1 (stereo not drawn) [Propafenone HCl] | 0.89 |
| 18 | CC1=C(C(=O)OC(C)C)C(c2cccc([N+](=O)[O-])c2)C(C(=O)OC2CN(C(c3ccccc3)c3ccccc3)C2)=C(N)N1 (stereo not drawn) [Azelnidipine] | 0.89 |
